Drawing on PMC4807998, this text covers binding for 1 substance.

No constants are given. Whether binding was seen depends on the method and setting. Binding seen in cells or lysates may run through a third protein. Binding can be weak; no strength is given.

The target of this test is T1, APPL1 (endogenous) (human (endogenous in PC-3U)) (UniProt Q9UKG1).
T1 sequence: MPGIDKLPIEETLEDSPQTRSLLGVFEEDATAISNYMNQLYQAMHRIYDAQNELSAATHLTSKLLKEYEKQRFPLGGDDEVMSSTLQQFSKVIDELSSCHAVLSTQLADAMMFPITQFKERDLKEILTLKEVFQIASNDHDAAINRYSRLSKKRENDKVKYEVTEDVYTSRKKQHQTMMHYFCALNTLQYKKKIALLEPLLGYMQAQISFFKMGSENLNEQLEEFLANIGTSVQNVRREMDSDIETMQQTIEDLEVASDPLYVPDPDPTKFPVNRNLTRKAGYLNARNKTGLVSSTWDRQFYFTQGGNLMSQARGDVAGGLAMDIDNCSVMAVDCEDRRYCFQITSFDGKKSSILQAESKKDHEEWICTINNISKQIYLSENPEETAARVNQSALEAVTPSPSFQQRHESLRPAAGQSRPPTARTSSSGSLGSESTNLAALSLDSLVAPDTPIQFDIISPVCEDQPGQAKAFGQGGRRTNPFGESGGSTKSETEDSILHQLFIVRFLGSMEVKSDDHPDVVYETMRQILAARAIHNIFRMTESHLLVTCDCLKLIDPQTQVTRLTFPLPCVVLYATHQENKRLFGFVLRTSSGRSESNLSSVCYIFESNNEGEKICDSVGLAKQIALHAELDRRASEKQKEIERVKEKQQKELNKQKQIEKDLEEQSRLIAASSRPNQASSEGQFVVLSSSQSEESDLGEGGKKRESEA
Nature of the test: co-IP; PC-3U whole-cell lysates, IP with APPL1 antibody, blot for PKCζ or β-tubulin; endogenous proteins; cells with or without TGFβ, control or TRAF6 siRNA.

For “β-tubulin (endogenous) (human (endogenous in PC-3U))”, the binding result was “binds”.
